{
  "source": "the supplement of paper PMC8007513",
  "note": "The other results are listed elsewhere or left out. Many values rest on one well or one pass, so single values are uncertain.",
  "data": [
    {"system": "Saccharomyces cerevisiae BY4743", "test": "growth (OD600) with compound + IPBC relative to untreated control; higher = less growth inhibition", "details": "compound concentration: 133 uM; IPBC concentration: 0.5 ug/ml; 20 h", "method": "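NMCCC compounds (133 uM) combined with IPBC (0.5 ug/ml) against Saccharomyces cerevisiae BY4743 in YPD, 96-well plates. Growth was read as OD600 at 20 h and expressed as % of the untreated control. Single pass.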", "units": {"growth": "%"}, "values": [
      {"compound": "CC(=O)Nc1cc(NC(C)=O)cc(C(=O)OC(C)C(=O)N2c3ccccc3NC(=O)C2(C)C)c1", "note": "(centres undefined) + CCCCNC(=O)OCC#CI [3-iodo-2-propynyl butylcarbamate (IPBC)]", "growth": 93.6},
      {"compound": "CS(=O)(=O)Nc1nc2ccc(NC(=O)COc3ccccc3)cc2s1", "note": "+ CCCCNC(=O)OCC#CI [3-iodo-2-propynyl butylcarbamate (IPBC)]", "growth": 85.7},
      {"compound": "CCc1ccc(OCC(=O)NC2CCCCC2)c(-n2cnnc2)c1", "note": "+ CCCCNC(=O)OCC#CI [3-iodo-2-propynyl butylcarbamate (IPBC)]", "growth": 83.3},
      {"compound": "CCOC(=O)N1CCN(C(=O)CNS(=O)(=O)c2ccc(Cl)c(C(F)(F)F)c2)CC1", "note": "+ CCCCNC(=O)OCC#CI [3-iodo-2-propynyl butylcarbamate (IPBC)]", "growth": 86.9},
      {"compound": "CC(=O)NC1C(=O)N(CCS(=O)(=O)c2ccccc2)c2ccc(F)cc21", "note": "(centres undefined) + CCCCNC(=O)OCC#CI [3-iodo-2-propynyl butylcarbamate (IPBC)]", "growth": 101},
      {"compound": "COc1ccc(C(CNC(=O)c2ccc(NS(=O)(=O)c3ccc(F)c(C)c3)cc2)N(C)C)cc1", "note": "(centres undefined) + CCCCNC(=O)OCC#CI [3-iodo-2-propynyl butylcarbamate (IPBC)]", "growth": 113},
      {"compound": "Cc1cc(-c2ccco2)n(CC(=O)NCc2ccccc2Cl)n1", "note": "+ CCCCNC(=O)OCC#CI [3-iodo-2-propynyl butylcarbamate (IPBC)]", "growth": 93.4},
      {"compound": "Cc1cc(C)cc(-c2nnc(SCc3cc(C)on3)o2)c1", "note": "+ CCCCNC(=O)OCC#CI [3-iodo-2-propynyl butylcarbamate (IPBC)]", "growth": 85.3},
      {"compound": "COc1nccc(N(C)C)c1NC(=O)c1cnn(-c2ccccc2)n1", "note": "+ CCCCNC(=O)OCC#CI [3-iodo-2-propynyl butylcarbamate (IPBC)]", "growth": 80.3},
      {"compound": "O=C(Nc1nccs1)c1cccnc1", "note": "+ CCCCNC(=O)OCC#CI [3-iodo-2-propynyl butylcarbamate (IPBC)]", "growth": 87.9},
      {"compound": "CC1=CC=C(C=C1)[S](=O)(=O)N2\\C=C/C3=CC=CC=C3C2C#N", "note": "(centres undefined) + CCCCNC(=O)OCC#CI [3-iodo-2-propynyl butylcarbamate (IPBC)]", "growth": 92},
      {"compound": "CCOC(=O)c1ccc(NC(=O)NC2CC(=O)N(C3CCCC3)C2)cc1", "note": "(centres undefined) + CCCCNC(=O)OCC#CI [3-iodo-2-propynyl butylcarbamate (IPBC)]", "growth": 89},
      {"compound": "CCOC(=O)N1CCN(c2ccc(S(N)(=O)=O)cn2)CC1", "note": "+ CCCCNC(=O)OCC#CI [3-iodo-2-propynyl butylcarbamate (IPBC)]", "growth": 112},
      {"compound": "Cc1ccccc1Cn1cc(NS(=O)(=O)c2ccc(Br)s2)cn1", "note": "+ CCCCNC(=O)OCC#CI [3-iodo-2-propynyl butylcarbamate (IPBC)]", "growth": 107},
      {"compound": "Cc1ccc(-c2noc(CCCC(=O)Nc3nncs3)n2)cc1", "note": "+ CCCCNC(=O)OCC#CI [3-iodo-2-propynyl butylcarbamate (IPBC)]", "growth": 79.3},
      {"compound": "CC(C)C(=O)NC1=CC=C(C=C1)C(=O)C(C)OC(=O)CN2\\C=N/C3=C(C=CS3)C2=O", "note": "(centres undefined) + CCCCNC(=O)OCC#CI [3-iodo-2-propynyl butylcarbamate (IPBC)]", "growth": 109},
      {"compound": "O=C(c1cc(Cl)ccn1)N1CCOc2ccccc21", "note": "+ CCCCNC(=O)OCC#CI [3-iodo-2-propynyl butylcarbamate (IPBC)]", "growth": 104},
      {"compound": "CCOC(=O)c1c(C)[nH]c(C(=O)OCC(=O)N2CCSC2c2ccccc2F)c1C", "note": "(centres undefined) + CCCCNC(=O)OCC#CI [3-iodo-2-propynyl butylcarbamate (IPBC)]", "growth": 116},
      {"compound": "COC(=O)\\C1=C\\N\\C=C(/C1C2=CC=C(OC)C(=C2)O)C(=O)OC", "note": "+ CCCCNC(=O)OCC#CI [3-iodo-2-propynyl butylcarbamate (IPBC)]", "growth": 93},
      {"compound": "O=C(CNC(=O)c1ccc2ncsc2c1)OCc1ccccc1", "note": "+ CCCCNC(=O)OCC#CI [3-iodo-2-propynyl butylcarbamate (IPBC)]", "growth": 81.7},
      {"compound": "COc1ccc(-c2nc(C(=O)OCC(=O)Nc3sccc3C(N)=O)cs2)cc1OC", "note": "+ CCCCNC(=O)OCC#CI [3-iodo-2-propynyl butylcarbamate (IPBC)]", "growth": 98.5},
      {"compound": "CCC(Sc1nc(O)c2c(n1)CCC2)C(=O)NC1CCCCC1", "note": "(centres undefined) + CCCCNC(=O)OCC#CI [3-iodo-2-propynyl butylcarbamate (IPBC)]", "growth": 82.5},
      {"compound": "CCSc1ncc(Cl)c(C(=O)Nc2nc(C)c(C(=O)OCC(C)C)s2)n1", "note": "+ CCCCNC(=O)OCC#CI [3-iodo-2-propynyl butylcarbamate (IPBC)]", "growth": 106},
      {"compound": "CCOC(=O)N1CCN(C(=O)c2noc3c2CCCCC3)CC1", "note": "+ CCCCNC(=O)OCC#CI [3-iodo-2-propynyl butylcarbamate (IPBC)]", "growth": 103},
      {"compound": "Cc1ccc(-c2nc(CC(=O)OCC(=O)c3ccc[nH]3)cs2)cc1", "note": "+ CCCCNC(=O)OCC#CI [3-iodo-2-propynyl butylcarbamate (IPBC)]", "growth": 100},
      {"compound": "CCOC(=O)c1cc(Oc2ccc(C#N)cn2)cc(C(=O)OCC)c1", "note": "+ CCCCNC(=O)OCC#CI [3-iodo-2-propynyl butylcarbamate (IPBC)]", "growth": 84.3},
      {"compound": "COc1ccc(Br)cc1CNC(=O)CN1C(=O)CSc2nc(C)cc(C)c21", "note": "+ CCCCNC(=O)OCC#CI [3-iodo-2-propynyl butylcarbamate (IPBC)]", "growth": 106},
      {"compound": "CCOC(=O)c1c(C)[nH]c(C)c1C(=O)CSc1nnc2nc(C)cc(C)n12", "note": "+ CCCCNC(=O)OCC#CI [3-iodo-2-propynyl butylcarbamate (IPBC)]", "growth": 88.2},
      {"compound": "CCOC(=O)Cc1c(O)nc2ccc(C)cc2c1-c1ccccc1", "note": "+ CCCCNC(=O)OCC#CI [3-iodo-2-propynyl butylcarbamate (IPBC)]", "growth": 111},
      {"compound": "Cc1ccc(-c2nnc(SC(C)C(=O)NC(=O)NC(C)(C)C)o2)cc1C", "note": "(centres undefined) + CCCCNC(=O)OCC#CI [3-iodo-2-propynyl butylcarbamate (IPBC)]", "growth": 89.8},
      {"compound": "CCOC(=O)c1cc(CNC2(CN3CCOCC3)CCCC2)on1", "note": "+ CCCCNC(=O)OCC#CI [3-iodo-2-propynyl butylcarbamate (IPBC)]", "growth": 111},
      {"compound": "O=C(Nc1cccc(N2CCCS2(=O)=O)c1)C(=O)N[C@H](CO)Cc1ccccc1", "note": "+ CCCCNC(=O)OCC#CI [3-iodo-2-propynyl butylcarbamate (IPBC)]", "growth": 86},
      {"compound": "CCOc1ccc(OCC)c(NC(=O)Nc2ccc3c(c2)N(C)C(=O)CS3)c1", "note": "+ CCCCNC(=O)OCC#CI [3-iodo-2-propynyl butylcarbamate (IPBC)]", "growth": 91.6},
      {"compound": "CCCCN1\\C=N/[S](=O)(=O)C2=CC=C(C=C12)C(F)(F)F", "note": "+ CCCCNC(=O)OCC#CI [3-iodo-2-propynyl butylcarbamate (IPBC)]", "growth": 101},
      {"compound": "O=C(CCCN1C(=O)CSc2ncccc21)NCC1CCCO1", "note": "(centres undefined) + CCCCNC(=O)OCC#CI [3-iodo-2-propynyl butylcarbamate (IPBC)]", "growth": 104},
      {"compound": "Cn1cnc(S(=O)(=O)N2CC(OCc3ccc(Cl)cc3)C2)c1", "note": "+ CCCCNC(=O)OCC#CI [3-iodo-2-propynyl butylcarbamate (IPBC)]", "growth": 81.4},
      {"compound": "COC(=O)CC(NC(=O)c1cc(C(C)=O)c[nH]1)c1ccccc1Cl", "note": "(centres undefined) + CCCCNC(=O)OCC#CI [3-iodo-2-propynyl butylcarbamate (IPBC)]", "growth": 98.1},
      {"compound": "COC(=O)[C@H](CCSC)NC(=O)Nc1ccc(N2CCC(C)CC2)c(Cl)c1", "note": "+ CCCCNC(=O)OCC#CI [3-iodo-2-propynyl butylcarbamate (IPBC)]", "growth": 99.2},
      {"compound": "NC(=O)c1sc2nc(-c3cccs3)ccc2c1N", "note": "+ CCCCNC(=O)OCC#CI [3-iodo-2-propynyl butylcarbamate (IPBC)]", "growth": 86.7}
    ]}
  ]
}
